Assay results from US10087197B2, “Selective extraction of anions from solution” (Western Michigan University Research Foundation, priority 2012, dated 2018).
Some entries share one result that the patent states for a list of compounds.

Assay: Solubility of nano-jar aggregates and polymer in solvents
Type: physicochemical
Conditions: in CH2Cl2
Text: The unusually high solubility of (Bu4N)2[SO4^2−⊂{cis-Cu^II(μ-OH)(μ-pz)}6+12+10], and (Bu4N)2[SO4^2−⊂{cis-Cu^II(μ-OH)(μ-pz)}8+14+9]
Production of Host 1 and Host 2 via depolymerisation of [Cu^II(μ-OH)(μ-pz)]∞ includes the steps of combining aqueous solutions of CuSO4 and KOH/Hpz (1:2:1 molar ratio), which results in the formation of a blue-purple precipitate (Scheme 1). […] Elemental analysis results concur with the formula [Cu(OH)(pz)] (for C3H4CuN2O, M.W.=147.62, calculated/found: C, 24.4124.25%; H, 2.73/2.72%; N, 18.9818.40%). The structure of this intractable material likely consists of linear polymeric chains resulting from an all-trans arrangement of the pyrazole and OH moieties about the copper centers, similar to the ones found in [Cu^II(μ-pz)2]∞.
(Bu4N)HSO4 or (Bu4N)2SO4 can be added to a suspension of [Cu(μ-OH)(μ-pz)]∞ in THF or toluene, which leads to the immediate formation of a deep blue solution, and gradual dissolution of the solid. […] Hexane vapor diffusion to a toluene solution is then used to obtain dark blue single crystals in the form of blocks and thin plates. […]

Substance | solubility [g in 100 ml CH2Cl2]
(Bu4N)2[SO4^2−⊂{cis-Cu^II(μ-OH)(μ-pz)}6+12+10] | > 20
(Bu4N)2[SO4^2−⊂{cis-Cu^II(μ-OH)(μ-pz)}8+14+9] | > 20
